This experiment concerns L1210 leukemia ip in BDF1 mice, survival T/C. As to the kind of experiment: NCI In Vivo Anticancer Drug Screen. Data for tumor model L1210 Leukemia (intraperitoneal) in B6D2F1 (BDF1) mice. Particulars: T/C endpoint: mean survival time, higher T/C = longer survival.
[1] abbreviates: dose: 400.0 mg/kg/injection, schedule: Q01DX009 (ip), vehicle: saline with Tween-80.
Where [2] appears, read: dose: 200.0 mg/kg/injection, schedule: Q01DX009 (ip), vehicle: Klucel (hydroxypropylcellulose) (HPC).
[3] abbreviates: dose: 400.0 mg/kg/injection, schedule: Q01DX009 (ip), vehicle: Klucel (hydroxypropylcellulose) (HPC).
The mark [4] stands for this setting: dose: 200.0 mg/kg/injection, schedule: Q01DX001 (ip), vehicle: saline.
[5] abbreviates: dose: 400.0 mg/kg/injection, schedule: Q01DX001 (ip), vehicle: saline.
Setting [6] is: dose: 100.0 mg/kg/injection, schedule: Q01DX009 (ip), vehicle: saline.
The mark [7] stands for this setting: dose: 100.0 mg/kg/injection, schedule: Q04DX003 (ip), vehicle: saline.
[8] abbreviates: dose: 200.0 mg/kg/injection, schedule: Q01DX009 (ip), vehicle: saline.
[9] abbreviates: dose: 200.0 mg/kg/injection, schedule: Q04DX003 (ip), vehicle: saline.
Setting [10] is: dose: 400.0 mg/kg/injection, schedule: Q01DX009 (ip), vehicle: saline.
[11] abbreviates: dose: 400.0 mg/kg/injection, schedule: Q04DX003 (ip), vehicle: saline.
The mark [12] stands for this setting: dose: 400.0 mg/kg/injection, schedule: Q01DX001 (ip), vehicle: saline with Tween-80.
Setting [13] is: dose: 100.0 mg/kg/injection, schedule: Q04DX002 (ip), vehicle: saline with Tween-80.
The mark [14] stands for this setting: dose: 200.0 mg/kg/injection, schedule: Q04DX003 (ip), vehicle: saline with Tween-80.
[15] abbreviates: dose: 400.0 mg/kg/injection, schedule: Q04DX003 (ip), vehicle: saline with Tween-80.

Data on 21 compounds can be found in PubChem BioAssay AID248 (DTP/NCI, 2004).

The list does not hold the whole screen: it is rich in T/C values a quarter to a half above the control, in often repeated tests (any T/C) and in doses without a T/C. Other doses and runs of a compound stand elsewhere. T/C is the treated group as % of the vehicle group. Some entries give survivors of the animals treated and no T/C: the source holds a T/C of zero for them, seemingly a mark for toxic or unscored doses. Some survivor counts are full or nearly so, which does not show that the dose was tolerated: the source hardly ever lists a survival T/C far under the control, and the zero likely stands for such cases as well. Counts of survivors are from the toxicity check (mostly the fifth day) where no day follows; animals may have died later. Schedules are NCI's codes, read here as Q, the interval in days (D) or hours (H), X, the number of doses. Some doses were run more than once; their values stand side by side, smallest first. Some schedule codes hold Z or #, which are not explained here. Some structures stand for samples that the source files as different forms (salt, stereo form or complex); doses refer to the form tested. Where survival is the endpoint, the PubChem record calls one and a half times the control and up active, and a quarter to a half above the control has no call in these data; cut-offs in other NCI protocols can differ. Some T/C values carry the count of animals alive at the toxicity check (mostly the fifth day); without a count, all were alive then.

Consider `O=NN(CCCl)C(=O)NC1CCS(=O)(=O)C1` (stereo not given) (tested in a mixture with another compound), for which the survivor count by setting is: (dose: 100.0 mg/kg/injection, schedule: Q01DX001 (ip), vehicle: other) 6 of 10; (dose: 150.0 mg/kg/injection, schedule: Q01DX001 (ip), vehicle: other) 4 of 10.

Consider `CCc1c(N)nc(N)[nH]c1=O`, for which the T/C (dose: 100.0 mg/kg/injection, schedule: Q01DX001 (ip), vehicle: Klucel (hydroxypropylcellulose) (HPC)) was 140 % of control and the T/C (dose: 400.0 mg/kg/injection, schedule: Q01DX001 (ip), vehicle: Klucel (hydroxypropylcellulose) (HPC)) was 136 % of control.

`O=C(CCl)OC1CCCCC1`: the survivor count under setting [1] was 0 of 6.

With `COc1cc2cccc(OC)c(=O)c2c(O)c1OC`, the survivor count by setting is: under setting [2], 0 of 6; under setting [3], 0 of 6.

Regarding `CCC1CN1P(=O)(N(CC)CC)N1CC1CC` (stereo not given), the T/C by setting is: under setting [4], 127 % of control; (dose: 300.0 mg/kg/injection, schedule: Q01DX001 (ip), vehicle: saline) 128 % of control. Also, the survivor count reads like this: (dose: 225.0 mg/kg/injection, schedule: Q01DX009 (ip), vehicle: saline) 4 of 6; (dose: 337.5 mg/kg/injection, schedule: Q01DX009 (ip), vehicle: saline) 1 of 6; under setting [5], 2 of 6.

As for `CC(CCc1ccccc1)NN` (stereo not given), the survivor count is, setting by setting: under setting [6], 0 of 6; under setting [7], 4 of 4; under setting [8], 0 of 6; under setting [9], 3 of 4; under setting [10], 0 of 6; under setting [11], 0 of 4.

For the compound `CC1CCCC/C1=N/NC(N)=O` (stereo not given), the survivor count was 2 of 6 under setting [2] and 1 of 6 under setting [3].

Regarding `CCCCNC(=O)/C=C\C(=O)O`, the survivor count (dose: 200.0 mg/kg/injection, schedule: Q04DX003 (ip), vehicle: Klucel (hydroxypropylcellulose) (HPC)) is listed as 6 of 6.

Take `Nc1ccc(O)cc1`: the survivor count (dose: 50.0 mg/kg/injection, schedule: Q04DX003 (ip), vehicle: saline) is on record as 1 of 3; the survivor count under setting [7] was 0 of 3; the survivor count under setting [9] is 0 of 3; the survivor count under setting [11] was 0 of 3; the survivor count (dose: 405.0 mg/kg/injection, schedule: Q01DX Z (ip), vehicle: saline) is reported as 3 of 6; the survivor count (dose: 610.0 mg/kg/injection, schedule: Q01DX Z (ip), vehicle: saline) is 0 of 6. Further, the survivor count (dose: 640.0 mg/kg/injection, schedule: Q01DX Z (oral), vehicle: methylcellulose (MC)) was 1 of 6 and the survivor count (dose: 1280.0 mg/kg/injection, schedule: Q01DX Z (oral), vehicle: methylcellulose (MC)) is 0 of 6. For the same compound, the T/C is, setting by setting: (dose: 80.0 mg/kg/injection, schedule: Q01DX Z (ip), vehicle: methylcellulose (MC)) 137 % of control; (dose: 160.0 mg/kg/injection, schedule: Q01DX Z (ip), vehicle: methylcellulose (MC)) 130 % of control; (dose: 480.0 mg/kg/injection, schedule: Q01DX013 (oral), vehicle: saline) 136 % of control; (dose: 720.0 mg/kg/injection, schedule: Q01DX016 (oral), vehicle: saline) 132 % of control [5 of 6 alive]; (dose: 1080.0 mg/kg/injection, schedule: Q01DX016 (oral), vehicle: saline) 139 % of control [4 of 6 alive].

Take `C[N+]1(C)CCCCC1`: the survivor count is, setting by setting: under setting [7], 1 of 6; under setting [9], 0 of 6.

Regarding `CCCC(C)C(=O)OCP(=O)(COC(=O)C(C)CCC)COC(=O)C(C)CCC` (stereo not given), the survivor count under setting [12] is on record as 6 of 6.

Regarding `COc1ccc(Cl)cc1NC(=O)Oc1ccccc1C(N)=O`, the survivor count reads like this: (dose: 50.0 mg/kg/injection, schedule: Q01DX009 (ip), vehicle: saline) 5 of 6; under setting [6], 6 of 6; under setting [13], 3 of 6 and 3 of 3; (dose: 200.0 mg/kg/injection, schedule: Q01DX009 (ip), vehicle: saline with Tween-80) 0 of 3; (dose: 200.0 mg/kg/injection, schedule: Q04DX002 (ip), vehicle: saline with Tween-80) 3 of 3; under setting [14], 6 of 6. Besides, the survivor count under setting [12] was 0 of 6; the survivor count under setting [1] is listed as 0 of 3; the survivor count (dose: 400.0 mg/kg/injection, schedule: Q04DX002 (ip), vehicle: saline with Tween-80) is 0 of 3 and 2 of 6; the survivor count under setting [15] is listed as 3 of 6. The T/C under setting [13] was 93 and 98 % of control.

Consider `S=C=NC1CCC(CC2CCCCC2)CC1` (stereo not given), for which the survivor count reads like this: under setting [2], 2 of 6; under setting [3], 1 of 6.

As to `c1ccc(C(c2ccccc2)C2CCCCC2)cc1`, the survivor count (dose: 400.0 mg/kg/injection, schedule: Q04DX003 (ip), vehicle: Klucel (hydroxypropylcellulose) (HPC)) was 6 of 6.

Turning to `O=NN1C(=O)C2CC3CC(C2)CC1C3`, the survivor count is on record as 0 of 6 (dose: 100.0 mg/kg/injection, schedule: Q04DX003 (ip), vehicle: alcohol); 2 of 6 (dose: 200.0 mg/kg/injection, schedule: Q04DX003 (ip), vehicle: alcohol); 0 of 6 (dose: 400.0 mg/kg/injection, schedule: Q04DX003 (ip), vehicle: alcohol).

For `CCNC(=O)c1ccccc1-c1ccccc1C(=O)NCC`, the survivor count is 0 of 4 (dose: 200.0 mg/kg/injection, schedule: Q01DX001 (ip), vehicle: other) and 0 of 4 (dose: 400.0 mg/kg/injection, schedule: Q01DX001 (ip), vehicle: other).

Turning to `CC12C(=O)N(C3CCC(=O)NC3=O)C(=O)C1C1CCC2C1` (stereo not given), the survivor count is, setting by setting: under setting [14], 0 of 3; under setting [15], 0 of 3.

For the compound `Cc1ncc(CC#N)c2c1OC(C)(C)OC2`, the survivor count reads like this: (dose: 100.0 mg/kg/injection, schedule: Q01DX001 (ip), vehicle: carboxymethylcellulose (CMC)) 0 of 4; (dose: 200.0 mg/kg/injection, schedule: Q01DX001 (ip), vehicle: carboxymethylcellulose (CMC)) 0 of 4; (dose: 400.0 mg/kg/injection, schedule: Q01DX001 (ip), vehicle: carboxymethylcellulose (CMC)) 0 of 4.

As for `CNCCCN1c2ccccc2CCc2ccccc21`, the survivor count reads like this: (dose: 100.0 mg/kg/injection, schedule: Q01DX001 (ip), vehicle: saline) 1 of 6; under setting [6], 0 of 6; under setting [7], 2 of 4; under setting [4], 0 of 6; under setting [8], 0 of 6; under setting [9], 0 of 4. In addition, the survivor count runs as follows: under setting [5], 0 of 6; under setting [10], 0 of 6; under setting [11], 0 of 4.

As for `CC(C)=NC(=O)NO.[Cl][Zn][Cl]`, the survivor count by setting is: (dose: 75.0 mg/kg/injection, schedule: Q01DX001 (ip), vehicle: carboxymethylcellulose (CMC)) 2 of 6; (dose: 150.0 mg/kg/injection, schedule: Q01DX001 (ip), vehicle: carboxymethylcellulose (CMC)) 0 of 6; (dose: 300.0 mg/kg/injection, schedule: Q01DX001 (ip), vehicle: carboxymethylcellulose (CMC)) 0 of 6.

As for `CCCCNC(=NC)c1ccc(NC(=O)c2ccc(C(=O)Nc3ccc(C(=NC)NCCCC)cc3)cc2)cc1`, the survivor count is 2 of 6 (dose: 10.0 mg/kg/injection, schedule: Q01DX Z (ip), vehicle: saline) and 0 of 6 (dose: 15.0 mg/kg/injection, schedule: Q01DX Z (ip), vehicle: saline).
